Experimental data: PMC2033583, “Temperature sensitivity for conformation is an intrinsic property of wild-type p53”
The exact form of at least one protein or probe is not confirmed. The comparison behind a weaker result is the experiment's own reference, which may not be listed here. At least one verdict was read from the data and is not stated in words by the source.

By UniProt entry, the sequences of proteins in these tests, tags left out.
UniProt P02340, whole entry: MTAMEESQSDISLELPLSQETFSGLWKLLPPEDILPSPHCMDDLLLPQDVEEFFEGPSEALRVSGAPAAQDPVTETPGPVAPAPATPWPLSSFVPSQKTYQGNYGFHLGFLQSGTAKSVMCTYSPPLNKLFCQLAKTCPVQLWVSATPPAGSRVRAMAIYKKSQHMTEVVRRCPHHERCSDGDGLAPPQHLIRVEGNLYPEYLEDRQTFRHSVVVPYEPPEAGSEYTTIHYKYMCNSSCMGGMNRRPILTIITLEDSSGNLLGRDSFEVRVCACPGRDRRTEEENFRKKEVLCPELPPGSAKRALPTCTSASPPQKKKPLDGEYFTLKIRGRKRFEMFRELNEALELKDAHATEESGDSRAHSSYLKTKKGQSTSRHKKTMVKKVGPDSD

Target: p53 (murine wild-type) (mouse) (UniProt P02340)
Test: EMSA
Settings: EMSA on 4% polyacrylamide gels with PAb 421, reticulocyte lysate p53 pre-exposed to OP 20 min at 30 or 37 C, binding buffer, protein translated in vitro, label: 32P

“GGGCATGTCCGGGCATGTCC (double strand) [p53 CON]”: binds more weakly (increasing 1,10-phenanthroline (up to mM), 20 min at 37 C, PAb 421, DNA binding inhibited); binds (no 1,10-phenanthroline, PAb 421 (supershift)).
